Data from patent publication US7734426B2 (priority 1999, dated 2010).
For at least one compound, name, drawing or mass did not settle the structure.

System: NG-108-15 Cells
Assay type: cell-based

| SMILES | Effect | Onset Time [s] | inhibit repetitive firing |
| --- | --- | --- | --- |
| CC(C)C[C@@H]1NC(=O)[C@H](C)NC(=O)[C@H]([C@@H](C)O)NC(=O)[C@H](CCC(=O)O)NC(=O)[C@@H]2CCCN2C(=O)[C@H](C)NC(=O)[C@H](CCCCN)NC(=O)[C@@H]2CSSC[C@@H](C(=O)N[C@@H](CCC(N)=O)C(=O)N[C@@H](CCC(N)=O)C(=O)N[C@@H](Cc3cnc[nH]3)C(N)=O)NC(=O)[C@H](CCCNC(=N)N)NC(=O)[C@H](CCCNC(=N)N)NC(=O)[C@H](C)NC(=O)[C@H](CSSC[C@H](N)C(=O)N[C@@H](CC(N)=O)C(=O)N2)NC1=O [apamin] | KCa “SK”-type channel | <60 | apamin* |
| COC(=O)C1=C(C)NC(C)=C(C(=O)OC)C1c1ccccc1[N+](=O)[O-] [nifedipine] | L-type Ca^2+ channel | <60 | – |
